Some of the results follow. Shown are side measurements of this screen, not its main read-out; they come without a call. Compounds called inactive in the main read-out are mostly missing here. The note in brackets gives the kind of curve behind each potency; many fits are weak.

For orientation: AC50 means the concentration at which the activity in the assay is half-maximal. The low end stands for activity at low concentration, the high end for activity only at high concentration.

This test is described as follows: qHTS Assay for Lipid Storage Modulators in Drosophila S3 Cells.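 As to cell number change: cells counted by Cell Tracker Red CMTPX staining in the red channel.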 As to conditions: BODIPY lipid droplet fluorescence, 18-24 h; for cell number change: measured here: cell count max response, cells fed with added oleic acid. An outline of the steps:
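Drosophila S3 cells got compounds at several concentrations plus oleic acid (400 uM solution). Laser-scanning cytometry with 488 nm excitation read lipid droplets at 500-530 nm and cells at 575-640 nm. Percent activity was relative to 20 uM Triacsin C.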

Setting [1] is: measured here: cell number channel AC50, cells fed with added oleic acid.
The mark [2] stands for this setting: measured here: lipid fluorescence (Fed channel) AC50, cells fed with added oleic acid.

For `COc1ccc(OCCC(=O)Nc2nccs2)cc1`, the cell number change is -15%. Also, the half-maximal activity concentration (AC50) under setting [1] was 0.58 µM [rising, partial curve, poor fit].
Turning to `Clc1ccc(-c2noc(CSc3nnc(Cc4cccs4)n3-c3ccccc3)n2)cc1`, the cell number change was -12.5%. Under setting [2], the AC50 was 0.0366 µM [falling, full curve, poor fit].
For `Cc1nnc(SCC(=O)NCc2cccs2)[nH]c1=O`, the cell number change came to 8.88%.
For `O=C(N/C(=C\c1cccnc1)c1nc2ccccc2[nH]1)c1cccc(Br)c1`, the cell number change was found to be 12.2%. The concentration at half-maximal activity (AC50) under setting [2] was 2.06 µM [rising, partial curve].
Consider `COc1ccc(NC(=O)C(C)Sc2ccccc2)cc1` (stereo not drawn), for which the cell number change came out at 1.3%. In addition, under setting [1], the AC50 is 0.058 µM [falling, full curve, poor fit].
On to `COc1cc(C(=O)N(C)CC2CCN(CCc3cccc(C(F)(F)F)c3)CC2)ccc1C`, for which the cell number change is -8.52%. For the same molecule, the half-maximal activity concentration (AC50) under setting [2] was 29.1 µM [rising, single point].
`Oc1ccc(C2Nc3cccc4cccc(c34)N2)c(O)c1`: the cell number change is -21.8%. Moreover, the AC50 under setting [2] was 29.1 µM [falling, single point].
Regarding `O=C(COc1ccc(S(=O)(=O)N2CCCC2)cc1Cl)NCc1ccccn1`, the cell number change is -16.1%. Moreover, under setting [2], the AC50 was 20.6 µM [falling, single point].
In the case of `O=C(NCCC1=CCCCC1)C1CCCN(S(=O)(=O)c2ccccc2)C1` (stereo not drawn), the AC50 is, setting by setting: under setting [1], 0.58 µM [falling, single point]; under setting [2], 0.58 µM [falling, single point].
As for `COc1ccc(C(=O)Nc2ccc(NC(=O)CSc3nnc(-c4ccncc4)n3C)cc2)cc1`, the cell number change is 17.5%.
For the molecule `O=C(c1cccc([N+](=O)[O-])c1)N1CCN(c2ccccn2)CC1`, the cell number change worked out at 21.5%. Further, the concentration at half-maximal activity (AC50) under setting [2] is 23.1 µM [rising, single point].
With `Cc1ccc(C(=O)N/N=C/c2cc(Br)ccc2O)cn1`, the cell number change was -8.39%.
Consider `CC1(C)CC(=O)C2=C(C1)Oc1nc3ccccc3cc1C2C(C#N)C#N` (stereo not drawn), for which the cell number change is -21.9%. Moreover, under setting [2], the AC50 is 0.731 µM [falling, full curve, poor fit].
As to `CCOc1ccccc1N(CC(=O)NC(C)(C)C)C(=O)Cn1nnc(-c2ccc(C)o2)n1`, the cell number change was 17.6%.
Consider `COc1ccccc1OCCC(=O)OCC(=O)Nc1ccc(Br)cc1F`, for which the cell number change was found to be 9.65%. Besides, under setting [2], the AC50 is 0.461 µM [falling, single point].
In the case of `O=[N+]([O-])c1ccc(C(=S)N2CCN(c3ccc(F)cc3)CC2)cc1`, the cell number change was -32.2%. Under setting [1], the AC50 was 23.1 µM [falling, single point]. Further, the AC50 under setting [2] is 23.1 µM [falling, single point].
Regarding `O=C(Nc1ccc(Cl)cc1F)c1ccccc1Br`, the cell number change was found to be 7.62%. Besides, the AC50 under setting [2] was 1.84 µM [rising, partial curve, poor fit].
Consider `COc1ccc(S(=O)(=O)NCc2ccco2)cc1-c1nnc2c3ccccc3c(C)nn12`, for which the cell number change was -5.14%.
As to `Cc1cc(NC(=O)c2ccco2)no1`, the cell number change stood at 0.804%. Under setting [2], the AC50 was 3.66 µM [falling, partial curve, poor fit].
As to `COc1ccc(C(=O)NCCCSC)cc1OC1CCN(C(C)C)CC1`, the cell number change was -9.71%.
Turning to `O=C(OC1CCOC1=O)c1ccccc1C(=O)c1ccc(Cl)c([N+](=O)[O-])c1` (stereo not drawn), the cell number change was -11.5%. The AC50 under setting [2] was 0.461 µM [falling, full curve, poor fit].
On to `O=C(OCC(=O)N1CCc2ccccc2C1)c1ccc(N2CCOCC2)c([N+](=O)[O-])c1`, for which the cell number change was -13.8%. For the same molecule, the AC50 under setting [2] is 16.4 µM [falling, partial curve, poor fit].
Regarding `CCOC(=O)Nc1cc(OC)c(OC)cc1Cc1nccc2cc(OC)c(OC)cc12`, the cell number change was -27.2%. For the same molecule, the AC50 under setting [2] is 0.731 µM [rising, partial curve].
Regarding `O=C(NC1CCCCC1)C(c1ccc(F)cc1)N(C(=O)c1csnn1)C1CC1` (stereo not drawn), the cell number change was determined as 21%.
Regarding `O=C(/C=C/c1cn(-c2ccccc2)nc1-c1ccc2c(c1)OCCO2)NCCCN1CCOCC1`, the cell number change stood at 3.97%. Further, under setting [1], the AC50 is 1.84 µM [rising, partial curve]. Also, the half-maximal activity concentration (AC50) under setting [2] was 0.82 µM [rising, partial curve, poor fit].
`COCCNC(=O)CN(C(=O)CCC(=O)Nc1cc(C)on1)c1ccccc1C`: the cell number change is -0.982%.
In the case of `CCNC(=O)CC1C(=O)N(c2ccccc2)C(=O)N1CCc1ccc(OC)c(OC)c1` (stereo not drawn), the concentration at half-maximal activity (AC50) under setting [2] was 2.91 µM [falling, partial curve].
As for `Cc1ccccc1-n1c(Cn2c(=O)sc3ccccc32)nnc1SCC(=O)Nc1nccs1`, the cell number change is -0.41%. The AC50 under setting [2] is 0.058 µM [rising, full curve, poor fit].
As to `CCCc1nc(SCC(=O)N2CCc3ccccc32)c2c(=O)n(C)c(=O)n(C)c2n1`, the AC50 reads like this: under setting [1], 0.366 µM [rising, full curve]; under setting [2], 0.58 µM [rising, full curve].
For `CCc1nnc(NC(=O)CCc2ccccc2OC)s1`, the cell number change turned out to be 10.8%.
For `Cc1ccc(S(=O)(=O)N2CCC(C(=O)NCCCN3CCOCC3)CC2)cc1C`, the cell number change is -14.9%.
In the case of `COc1ccccc1C(=O)COC(=O)c1ccc(-n2cnnn2)cc1`, the cell number change was -66%. Moreover, the AC50 under setting [1] was 14.6 µM [falling, partial curve, poor fit].
With `CCN(CC(=O)NC(=O)NCc1ccccc1)CC(=O)Nc1cc(Cl)ccc1C`, the cell number change came out at 0.337%. Besides, under setting [1], the AC50 was 6.51 µM [falling, single point]. For the same molecule, under setting [2], the AC50 was 0.103 µM [falling, full curve, poor fit].
`CCOC(=O)Cc1csc(SCC(=O)Nc2cc(Cl)ccc2Oc2ccccc2)n1`: the cell number change turned out to be 2.61%. For the same molecule, the AC50 under setting [2] is 6.51 µM [falling, partial curve].
In the case of `Cc1cc(C)cc(N(C(=O)c2ccccn2)C(C(=O)NC2CCCCC2)c2ccncc2)c1` (stereo not drawn), the cell number change came to 9.27%. Under setting [2], the AC50 is 6.51 µM [rising, partial curve, poor fit].
For `COc1ccc(/C=N/Nc2cc(C)nc3c(C)cccc23)cc1`, the cell number change was -49.1%. Under setting [1], the AC50 is 23.1 µM [falling, single point].
In the case of `CC(SC#N)C(=O)C12CC3CC(CC(C3)C1)C2` (stereo not drawn), the cell number change is -20.4%. For the same molecule, the AC50 under setting [2] is 25.9 µM [falling, single point].
On to `Cc1cc(NC(=O)c2ccc(N(C)S(=O)(=O)c3ccccc3)cc2)no1`, for which the cell number change is -15.2%. Also, under setting [2], the AC50 is 0.82 µM [falling, full curve, poor fit].
With `Cc1cc(C)c(-c2csc(NC(=O)c3n[nH]c(=O)c4ccccc34)n2)c(C)c1`, the cell number change is -7.36%. Moreover, the AC50 under setting [2] is 11.6 µM [falling, single point].
As to `COc1ccc(NC(=O)CCNS(=O)(=O)c2cccc(C(C)=O)c2)cc1S(N)(=O)=O`, the cell number change was -13.3%. Further, the AC50 under setting [2] was 6.51 µM [falling, partial curve].
Consider `CC1CCC(NC(=O)C2c3ccccc3C(=O)N2Cc2cccs2)CC1` (stereo not drawn), for which the cell number change is -11.4%. The AC50 under setting [2] was 1.84 µM [falling, full curve, poor fit].
For `O=C(N/N=C/c1ccoc1)c1cc(Br)ccc1O`, the cell number change was -30.7%. Moreover, the AC50 under setting [1] is 32.6 µM [falling, single point]. In addition, the AC50 under setting [2] is 11.6 µM [falling, single point].
On to `COc1ccc(CNC2c3ccccc3-c3ccccc32)cc1OC`, for which the AC50 under setting [2] was 10.3 µM [falling, partial curve, poor fit].
Take `CCOC(=O)c1ccc(NC(=O)COc2cc3oc(=O)c(CC(C)O)c(C)c3cc2Cl)cc1` (stereo not drawn): the cell number change came to 18%. Further, under setting [2], the AC50 is 32.6 µM [rising, single point].
As for `Cc1ccc(CSCC(=O)N(CCC(C)C)c2c(N)n(Cc3ccccc3)c(=O)[nH]c2=O)cc1`, the cell number change is -44%. In addition, the concentration at half-maximal activity (AC50) under setting [1] was 23.1 µM [falling, single point]. Further, the AC50 under setting [2] is 13 µM [falling, partial curve].
On to `COCc1c(C(=O)N2CCN(c3ncccn3)CC2)oc2ccccc12`, for which the cell number change was found to be 32.7%. Moreover, the AC50 under setting [1] is 9.2 µM [rising, partial curve, poor fit]. In addition, the AC50 under setting [2] was 2.06 µM [rising, full curve, poor fit].
On to `C#CCOCCOCCOCCNc1nc(N2CCN(C(=O)CCCCCCCCCCNC(=O)Cn3cc(C[C@@H](C)O)nn3)CC2)nc(N2CCN(C(=O)CCCCCCCCCCNC(=O)[C@H](CCCCN)n3cc(C[C@@H](C)CC)nn3)CC2)n1`, for which the cell number change is -71.9%. Besides, the AC50 under setting [1] is 14.6 µM [falling, partial curve]. Moreover, the AC50 under setting [2] is 18.4 µM [falling, single point].
Regarding `Cc1ccccc1N=Cc1c(O)n(-c2nccs2)c(=O)c2ccccc12`, the cell number change was 34.9%. Under setting [1], the AC50 was 2.59 µM [rising, full curve, poor fit]. The half-maximal activity concentration (AC50) under setting [2] is 1.84 µM [rising, full curve].
Regarding `CCOc1ccc(NC(=O)CSc2nc3ccccc3c(=O)n2CCNC(C)=O)cc1`, the cell number change was determined as 20.6%. For the same molecule, the AC50 under setting [2] was 0.259 µM [rising, full curve].
Consider `CC1(C)CC(=O)C(C(=O)/C=C/NCCc2ccccc2)C(=O)C1`, for which the cell number change was -2.38%. In addition, the AC50 under setting [2] is 29.1 µM [falling, partial curve].
For `Nc1nnc(-c2ccc(Cl)c(Cl)c2)s1`, the cell number change was 98.2%. The AC50 under setting [1] was 1.84 µM [rising, partial curve, poor fit]. The AC50 under setting [2] was 0.00517 µM [rising, full curve, poor fit].
In the case of `C1CCN=C(Nc2nc3c(s2)CCCC3)CC1`, the AC50 under setting [2] is 0.731 µM [falling, full curve].
With `Cc1ccc(C(=O)N2CCN(C)CC2)cc1S(=O)(=O)N1CCCCCC1`, the cell number change is 19.9%.
`COc1cc(C(=S)N2CCC(C)CC2)ccc1O`: the cell number change amounted to 24.3%. Moreover, the AC50 under setting [2] was 29.1 µM [rising, single point].
In the case of `O=C(NCc1ccco1)c1cccc(C(F)(F)F)c1`, the cell number change is -18.8%. In addition, under setting [2], the AC50 is 29.1 µM [falling, single point].
For the molecule `Cc1onc(-c2c(F)cccc2Cl)c1C(=O)N1CCOC12CCCCC2`, the cell number change amounted to 81.5%. Further, under setting [1], the AC50 is 7.31 µM [rising, partial curve]. In addition, the AC50 under setting [2] was 9.2 µM [rising, partial curve].
For `COc1ccccc1-c1nc(-c2ccccn2)no1`, the cell number change is 6.45%.
For the molecule `Cc1cnc(C(=O)OCC(=O)c2ccc(-c3ccccc3)cc2)cn1`, the cell number change turned out to be 24.9%. Moreover, the AC50 under setting [2] is 29.1 µM [rising, single point].
Take `CCC(=O)NS(=O)(=O)c1ccc(N=NN2CCCCC2)cc1`: the cell number change is -31.2%. Besides, the AC50 under setting [2] is 0.58 µM [falling, full curve, poor fit].

The values above are taken from PubChem BioAssay AID2685 (National Center for Advancing Translational Sciences (NCATS), 2010).
